From ChEMBL document CHEMBL3988442, “University of Dundee, Small-Polar-MMV Screening Library” (2021).

A: 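Whole-cell growth test on Mycobacterium tuberculosis, read after 4 days in a medium based on cholesterol and the lipid DPPC; the read-out is not stated. Concentration: 50 µM. Higher reads as more growth inhibition (inferred: compounds with an IC50 in retests scored well above the rest). About 69,000 compounds were tested under these conditions; 0.54% (about 370) showed 50% or more at least once.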
B: 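Phenotypic screen: M. tuberculosis growth, glucose 7H9 medium, 3 days; the read-out is not stated. Concentration: 50 µM. Direction is inferred from retests: higher values go with more growth inhibition. Of about 69,000 compounds tested this way, about 760 (1.1%) reached 50% or more in at least one test.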

Each number is a percent effect as filed. The controls that fix the scale are not given in the record; negative values are as filed. Compounds were drawn at random from those tested, without regard to their results. Two or more numbers in one place are separate tests of the same structure; such repeats can differ widely.

compound | A | B
CCc1noc(CS(=O)(=O)Cc2ccccc2C)n1 | -20.39 | -12.18
O=c1c(CN2CCCCCC2)coc(O)c1CN1CCCCCC1 | 9.613 | -18.55
O=C(O)C(F)(F)F.[H][C@@]12COC[C@]1([H])[C@@H](OCCN(C)C)CN2C(=O)c1cccs1 | -21.67 | 6.013
[H][C@@]12CN(C(=O)CC(F)(F)F)C[C@]1([H])C(=O)N(Cc1csc(C)n1)C2 | -15.24 | 9.346
Cc1nc2ccccn2c1CN1C[C@@H](CN(C)C)[C@@H](CO)C1 | -14.93 | 8.933
Cc1ncc(CN2CCC(O)(c3ccccc3F)CC2)cn1 | 4.539 & 2.346 | -6.418
Cc1cc(C(=O)NCc2c(C)nn(C)c2C)nc(N2CCOCC2)n1 | 12.66 | 6.627
CCOCC1CN(C(=O)Cc2ccsc2)Cc2ccnn2C1.O=C(O)C(F)(F)F (centres unmarked) | -5.016 | 7.065
[H][C@]12CC[C@]([H])(CN(C(=O)CSc3nc(CC)n[nH]3)C1)N(CC=C(C)C)C2 | 20.16 | 3.384 & -13.06
CCN(CC)CCNC(=O)CCc1c(C)nn(-c2cccc(Cl)c2)c1C | -14.42 | -1.786
O=C(Nc1ccccc1OCC(F)F)N[C@@H]1C=C[C@H](CO)C1 | -6.718 | 3.344 & 0.9987
CCC(NC(=O)NCc1cccc(N(C)C)n1)c1cccs1 (centres unmarked) | 5.203 | 1.094
CCc1nc(CNCC2(C(N)=O)CCOCC2)cs1 | 7.492 | -19.41
O=C(O)CC(O)(CC(=O)O)C(=O)O.c1ccc([C@@H]2CN(Cc3ccncc3)C[C@H]2c2cc[nH]n2)cc1 | -0.5362 & -6.883 | -11.53
CN1N=C(C(=O)Nc2cc(F)ccc2OCC2CCCO2)CCC1=O (centres unmarked) | -5.757 | -6.071
COCCOc1ncccc1C(=O)Nc1c(C)cnn1CC1CC1 | 8.561 & -12.91 | 6.748
Cc1ncc2c(n1)CN(CC(=O)Nc1nncs1)CC2 | -15.32 | 6.405
CCc1nc(CC)n(CC(=O)N(C)CC(F)(F)F)n1 | 0.3252 | -3.404 & -9.425
CN(C)c1cc(CNC(=O)Nc2nncs2)ccn1 | -7.748 | 4.755
O=C(O)CC(CC(=O)NCCc1cccs1)c1cccs1 (centres unmarked) | 31.47 | -20.65
O=C(NC1CC1)C1CN(C(=O)c2cnccn2)C1 | 2.529 | -25.19 & 0.3244
Cc1cnn(CC2CCCCN2CCS(C)(=O)=O)c1 (centres unmarked) | 8.437 | 3.011
CN(Cc1cc2n(n1)CCNC2)Cc1n[nH]c2c1CCC2 | -5.743 | 10.75
CN(C(=O)c1cccn1C)C1CCC(NC(=O)OC(C)(C)C)CC1 (centres unmarked) | 10.51 | 14.81
COc1ccc(OCC(=O)NS(=O)(=O)c2cc(C)ccc2C)cc1 | -13.68 | -5.378
OCc1ccc(-c2c(-c3ccccc3)ncn2CCN2CCOCC2)o1 | -8.472 | -16.64
[H][C@@]12CCCO[C@]1([H])[C@H](OCc1ccccn1)CN2S(=O)(=O)N(C)C | 6.824 & -2.403 | 0.05922 & -2.92
Cc1ccc(CNC(=O)c2cc(Cn3ccnc3C(C)C)[nH]n2)o1 | -23.17 | -14.1
Cc1ccc(NC2CCN(C(=O)Cc3cccc(F)c3)CC2)nn1 | -3.961 | 23.05
Cc1cccc(S(=O)(=O)NCC2CCN(c3cnccn3)CC2)c1 | -17.19 | 7.326
COCCn1c(-c2cccc(OC)c2)cnc1NC(=O)NC(C)C | 7.615 | 20.64
CN1CCCN(c2nccc(-c3c[nH]nc3C3CCCCC3)n2)CC1 | -36.23 | 17.97
Cc1ccccc1OCCN1CCCC1CS(N)(=O)=O (centres unmarked) | -6.414 | 10.54
O=C(O)CC1COCCN1Cc1ccccc1-c1ccccc1 (centres unmarked) | -33.83 | -30.66 & -8.283
CCOCC(=O)N1CCC(c2nccn2Cc2cscn2)CC1 | -5.417 & -4.6 | 0.0279
CCc1ccc(CCNc2ncnc3c2CCN(C(=O)C2CC2)C3)cc1 | 23.83 | 41.14
N#Cc1cn[nH]c1NCc1cc(Br)ccc1O | -8.71 | 50.28
CC(C)c1ncc(CN2C[C@@H](CN3CCC(O)CC3)[C@@H](CO)C2)cn1 | -52.56 | -45.13
COCc1cc(CNC(=O)c2c(O)cccc2O)n[nH]1 | 4.554 | -1.115
N#Cc1ccc(CNCC(C(=O)N2CCOCC2)c2ccccc2)cc1 (centres unmarked) | -10 | 5.393
Cc1cc(C(=O)N2CCCC(n3nc(C)cc3C)C2)on1 (centres unmarked) | 13.07 | 6.431
O=C(CCc1nnc2ccccn2c1=O)NCc1ccco1 | -20.85 | -32.68
O=C(CCNC(=O)NC1CC1)NCc1ccccc1 | 1.269 | 9.971 & -5.098
CC[C@@H](C)[C@@H](N)C(=O)Nc1cccc(-c2cnc(NCCO)nc2)c1 | -8.023 | 4.332

The last 5 entries again:

- N#Cc1ccc(CNCC(C(=O)N2CCOCC2)c2ccccc2)cc1 (centres unmarked) | A: -10%; B: 5.393%
- Cc1cc(C(=O)N2CCCC(n3nc(C)cc3C)C2)on1 (centres unmarked) | A: 13.07%; B: 6.431%
- O=C(CCc1nnc2ccccn2c1=O)NCc1ccco1 | A: -20.85%; B: -32.68%
- O=C(CCNC(=O)NC1CC1)NCc1ccccc1 | A: 1.269%; B: 9.971% & -5.098%
- CC[C@@H](C)[C@@H](N)C(=O)Nc1cccc(-c2cnc(NCCO)nc2)c1 | A: -8.023%; B: 4.332%